The results in this text go back to PubChem BioAssay AID192 (DTP/NCI, 2004).

The list does not hold the whole screen: it gathers tests that were run many times, whatever their T/C, doses with no T/C, and many T/C values between a quarter and a half above the control. Further doses and runs are listed elsewhere. T/C gives the treated animals as a percentage of the vehicle group. Some entries give survivors of the animals treated and no T/C: the source holds a T/C of zero for them, seemingly a mark for toxic or unscored doses. Some survivor counts are full or nearly so, which does not show that the dose was tolerated: the source hardly ever lists a survival T/C far under the control, and the zero likely stands for such cases as well. Survivors were counted at the toxicity check, usually on the fifth day, unless a day is given; later deaths do not show. Schedules are NCI's codes, taken here to give the interval after Q, in days (D) or hours (H), and the number of doses after X. Some doses were run more than once; their values stand side by side, smallest first. Where survival is the endpoint, the PubChem record calls one and a half times the control and up active, and a quarter to a half above the control has no call in these data; cut-offs in other NCI protocols can differ.

For this assay, the system named is BDF1 mice, B16 melanoma ip, median survival T/C. Put plainly: NCI In Vivo Anticancer Drug Screen. Data for tumor model B16 Melanoma (intraperitoneal) in B6D2F1 (BDF1) mice. To be noted: T/C endpoint: median survival time, higher T/C = longer survival. In outline:
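Values are ratios of treated (T) to vehicle-control (C) measurements of survival or tumor size in tumor-bearing mice.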

Where [1] appears, read: dose: 200.0 mg/kg/injection, schedule: Q01DX009 (ip), vehicle: saline with Tween-80.
The mark [2] stands for this setting: dose: 400.0 mg/kg/injection, schedule: Q01DX009 (ip), vehicle: saline with Tween-80.
Setting [3] is: dose: 50.0 mg/kg/injection, schedule: Q01DX009 (ip), vehicle: Klucel (hydroxypropylcellulose) (HPC).
The mark [4] stands for this setting: dose: 100.0 mg/kg/injection, schedule: Q01DX009 (ip), vehicle: Klucel (hydroxypropylcellulose) (HPC).
[5] abbreviates: dose: 200.0 mg/kg/injection, schedule: Q01DX009 (ip), vehicle: Klucel (hydroxypropylcellulose) (HPC).
[6] abbreviates: dose: 400.0 mg/kg/injection, schedule: Q01DX009 (ip), vehicle: Klucel (hydroxypropylcellulose) (HPC).
Setting [7] is: dose: 100.0 mg/kg/injection, schedule: Q01DX009 (ip), vehicle: saline with Tween-80.

Take `CC1=C2C(=O)c3ccccc3C2=C(C)S(=O)(=O)O1`: the survivor count (dose: 200.0 mg/kg/injection, schedule: Q01DX009 (ip), vehicle: carboxymethylcellulose (CMC)) is reported as 3 of 10.
Turning to `CN1CCCCC1CCN1c2ccccc2Sc2ccc(Br)cc21` (stereo not drawn), where the note is “dose: 1.56 mg/kg/injection, schedule: Q01DX009 (ip), vehicle: saline”, the survivor count is 10 of 10.
On to `CCCCCCCCCCCCCCCCCC(=O)[O][Pb]([CH3])([CH3])[CH3]`, for which the survivor count reads like this: (dose: 10.0 mg/kg/injection, schedule: Q01DX009 (ip), vehicle: Klucel (hydroxypropylcellulose) (HPC)) 10 of 10; (dose: 20.0 mg/kg/injection, schedule: Q01DX009 (ip), vehicle: Klucel (hydroxypropylcellulose) (HPC)) 7 of 10.
Take `Oc1cc2ccccc2c(-c2c(O)c(O)cc3ccccc23)c1O`: the survivor count by setting is: under setting [1], 8 of 10; under setting [2], 2 of 10.
Regarding `CC(=O)OC1C(=O)C(O)C(C)OC1O[C@@H]1C[C@@]2(C)[C@@H]3CC=C4[C@@H](C[C@H](O)C(=O)C4(C)C)[C@]3(C)C(=O)C[C@]2(C)[C@H]1[C@@](C)(O)C(=O)/C=C/C(C)(C)O` (stereo partly drawn), the survivor count reads like this: (dose: 0.5 mg/kg/injection, schedule: Q01DX009 (ip), vehicle: saline) 6 of 6; (dose: 4.0 mg/kg/injection, schedule: Q01DX009 (ip), vehicle: saline) 3 of 6.
In the case of `CN(C)S(=O)(=O)c1ccc2c(c1)N(CCCN1CCN(S(C)(=O)=O)CC1)c1ccccc1S2`, the survivor count (dose: 6.25 mg/kg/injection, schedule: Q01DX009 (ip), vehicle: Klucel (hydroxypropylcellulose) (HPC)) is 10 of 10; the survivor count (dose: 25.0 mg/kg/injection, schedule: Q01DX009 (ip), vehicle: Klucel (hydroxypropylcellulose) (HPC)) is given as 10 of 10; the survivor count under setting [3] is 10 of 10; the survivor count under setting [4] is recorded as 10 of 10; the survivor count under setting [5] is reported as 10 of 10; the survivor count under setting [6] is listed as 9 of 10.
On to `CC1(C)C(C#N)C(=O)N=C(N)C1C(N)=O` (stereo not drawn), for which the survivor count (dose: 50.0 mg/kg/injection, schedule: Q04DX003 (ip), vehicle: Klucel (hydroxypropylcellulose) (HPC)) is recorded as 10 of 10.
Turning to `Cc1c2ccnc(C(N)=O)c2c(C)c2c1[nH]c1ccccc12`, the T/C (dose: 400.0 mg/kg/injection, schedule: Q04DX003 (ip), vehicle: distilled water + Tween-80) was 134 % of control and the T/C (dose: 800.0 mg/kg/injection, schedule: Q04DX003 (ip), vehicle: distilled water + Tween-80) is 146 % of control.
Consider `NC(=O)Oc1ccccc1`, for which, under setting [6], the survivor count was 8 of 10.
As for `COc1cc(Cc2nccc3cc(OC)c(OC)cc23)c(C(C)=O)cc1OC`, where the note is “dose: 100.0 mg/kg/injection, schedule: Q01DX009 (ip), vehicle: saline”, the survivor count is recorded as 10 of 10.
For `CCCC(=O)NC1CCc2cc(OC)c(OC)c(OC)c2-c2ccc(OC)c(=O)cc21` (stereo not drawn), the T/C reads like this: (dose: 0.31 mg/kg/injection, schedule: Q01DX009 (ip), vehicle: Klucel (hydroxypropylcellulose) (HPC)) 126 % of control; (dose: 0.62 mg/kg/injection, schedule: Q01DX009 (ip), vehicle: Klucel (hydroxypropylcellulose) (HPC)) 127 % of control; (dose: 1.25 mg/kg/injection, schedule: Q01DX009 (ip), vehicle: Klucel (hydroxypropylcellulose) (HPC)) 134 and 142 % of control. The survivor count reads like this: (dose: 2.5 mg/kg/injection, schedule: Q01DX009 (ip), vehicle: Klucel (hydroxypropylcellulose) (HPC)) 10 of 10; (dose: 5.0 mg/kg/injection, schedule: Q01DX009 (ip), vehicle: Klucel (hydroxypropylcellulose) (HPC)) 6 of 10.
Take `COC(=O)C1C(O)C(C)C(O)C(C)C=C(C)C2=C3C(=C(C)C(=O)c4c(O)c(c(C)c(OC(C)=O)c43)NC(=O)C(C)=C/C=C\C(C)C(O)C(C)C1O)OCO2` (stereo not drawn): the survivor count by setting is: under setting [3], 10 of 10; under setting [4], 9 of 10; (dose: 100.0 mg/kg/injection, schedule: Q01DX009 (ip), vehicle: carboxymethylcellulose (CMC)) 0 of 10; under setting [5], 0 of 10 and 0 of 6; under setting [6], 0 of 6.
In the case of `c1ccc([P+](c2ccccc2)(c2ccccc2)c2ccccc2)cc1`, the survivor count is on record as 10 of 10 (dose: 10.0 mg/kg/injection, schedule: Q01DX009 (ip), vehicle: saline with Tween-80) and 10 of 10 (dose: 10.0 mg/kg/injection, schedule: Q04DX003 (ip), vehicle: saline).
As to `Cc1cc(Cl)ccc1OCC(=O)Nc1nc(N)nc(N)n1`, the survivor count reads like this: (dose: 100.0 mg/kg/injection, schedule: Q04DX003 (ip), vehicle: carboxymethylcellulose (CMC)) 10 of 10; (dose: 200.0 mg/kg/injection, schedule: Q04DX003 (ip), vehicle: carboxymethylcellulose (CMC)) 10 of 10; (dose: 400.0 mg/kg/injection, schedule: Q04DX003 (ip), vehicle: carboxymethylcellulose (CMC)) 9 of 10.
Consider `Clc1ccc(C(c2ccc(Cl)cc2)C(Cl)(Cl)Cl)cc1`, for which the survivor count is recorded as 10 of 10 (dose: 64.0 mg/kg/injection, schedule: Q01DX009 (ip), vehicle: Klucel (hydroxypropylcellulose) (HPC)); 10 of 10 (dose: 128.0 mg/kg/injection, schedule: Q01DX009 (ip), vehicle: Klucel (hydroxypropylcellulose) (HPC)); 9 of 10 (dose: 256.0 mg/kg/injection, schedule: Q01DX009 (ip), vehicle: Klucel (hydroxypropylcellulose) (HPC)).
As to `CC(=O)CC(C)=O.CC(=O)CC(C)=O.O=N[O-].O=N[O-].[Co]`, the survivor count is, setting by setting: under setting [7], 10 of 10; under setting [1], 0 of 10.
For the molecule `CCCCCCCC(N)=O`, under setting [2], the survivor count was 10 of 10.
With `Nc1ccccc1SC1CC(=O)N(c2ccc(I)cc2)C1=O` (stereo not drawn), the survivor count runs as follows: (dose: 25.0 mg/kg/injection, schedule: Q01DX009 (ip), vehicle: saline with Tween-80) 5 of 6; under setting [7], 6 of 6; under setting [5], 9 of 10; under setting [1], 5 of 6; under setting [6], 9 of 10; under setting [2], 4 of 6.
Take `CC(C)=C(C=O)CCC(C)C`: the survivor count was 10 of 10 (dose: 200.0 mg/kg/injection, schedule: Q04DX003 (ip), vehicle: saline with Tween-80) and 9 of 10 (dose: 400.0 mg/kg/injection, schedule: Q04DX003 (ip), vehicle: saline with Tween-80).
